Values from PubChem BioAssay AID1508597 (Cure First, 2020).

Purpose: 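Genes whose silencing sensitises or protects ovarian cancer cells against rucaparib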 (primary screen)
Cells: human ovarian carcinoma lines grown from tumours: OCI-P5x (papillary serous) and OCI-C5x (clear cell)
Reagents: siRNA pool against human genes, 1.25 pmol siRNA per well
Time to read-out: 72 h or 96 h, depending on the cell culture
Treatment: rucaparib 20 µM (about IC30) or vehicle, present until read-out
Rucaparib or vehicle: Rucaparib
Cell line: OCI-P5x (serous)
Read-out: 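ATP luminescence measured at 72 or 96 h according to the culture, then normalised and expressed as percent viability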
Reading the numbers: viability, normalised: higher = more viable cells remaining
Call rule: 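a well counts as a hit if its normalised viability is under 80 percent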
Calls: active = viability under 80%; inactive = viability 80% or more
This is an unselected part of the about 2,100 reagents, under one of the conditions tested. 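Calls flag viability under 80% in either arm, not effects specific to rucaparib; the reference for percent is not stated.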 A number with no mark means an inactive call. Reagents against one gene are numbered here. A reagent listed more than once was tested more than once; the source does not tell the runs apart. No sequences are given here. Not stated in the record: the 100% reference.

gene symbol | pool no. | technical replicate | viability, normalised (%)
CSNK1A1L (casein kinase 1 alpha 1 like) | 1 | 1 | 61.2 (active)
CSNK1A1L (casein kinase 1 alpha 1 like) | 1 | 2 | 55.9 (active)
CSNK1A1L (casein kinase 1 alpha 1 like) | 1 | 3 | 59 (active)
SFMBT1 (Scm like with four mbt domains 1) | 1 | 1 | 51.2 (active)
SFMBT1 (Scm like with four mbt domains 1) | 1 | 2 | 40 (active)
SFMBT1 (Scm like with four mbt domains 1) | 1 | 3 | 56.8 (active)
HIPK4 (homeodomain interacting protein kinase 4) | 1 | 1 | 106
HIPK4 (homeodomain interacting protein kinase 4) | 1 | 2 | 112
HIPK4 (homeodomain interacting protein kinase 4) | 1 | 3 | 113
SNAPC4 (small nuclear RNA activating complex polypeptide 4) | 1 | 1 | 42.9 (active)
SNAPC4 (small nuclear RNA activating complex polypeptide 4) | 1 | 2 | 55.4 (active)
SNAPC4 (small nuclear RNA activating complex polypeptide 4) | 1 | 3 | 53.1 (active)
URI1 (URI1 prefoldin like chaperone) | 1 | 1 | 88.3
URI1 (URI1 prefoldin like chaperone) | 1 | 2 | 79.6 (active)
URI1 (URI1 prefoldin like chaperone) | 1 | 3 | 90.4
KDM2A (lysine demethylase 2A) | 1 | 1 | 72.3 (active)
KDM2A (lysine demethylase 2A) | 1 | 2 | 72.3 (active)
KDM2A (lysine demethylase 2A) | 1 | 3 | 84.4
AK1 (adenylate kinase 1) | 1 | 1 | 114
AK1 (adenylate kinase 1) | 1 | 2 | 113
AK1 (adenylate kinase 1) | 1 | 3 | 129
ERCC1 (ERCC excision repair 1, endonuclease non-catalytic subunit) | 1 | 1 | 66 (active)
ERCC1 (ERCC excision repair 1, endonuclease non-catalytic subunit) | 1 | 1 | 52.7 (active)
ERCC1 (ERCC excision repair 1, endonuclease non-catalytic subunit) | 1 | 2 | 76.3 (active)
ERCC1 (ERCC excision repair 1, endonuclease non-catalytic subunit) | 1 | 2 | 46.9 (active)
ERCC1 (ERCC excision repair 1, endonuclease non-catalytic subunit) | 1 | 3 | 64 (active)
ERCC1 (ERCC excision repair 1, endonuclease non-catalytic subunit) | 1 | 3 | 59.9 (active)
UHMK1 (U2AF homology motif kinase 1) | 1 | 1 | 72.3 (active)
UHMK1 (U2AF homology motif kinase 1) | 1 | 2 | 87.4
UHMK1 (U2AF homology motif kinase 1) | 1 | 3 | 60.4 (active)
RAD51D (RAD51 paralog D) | 1 | 1 | 51.5 (active)
RAD51D (RAD51 paralog D) | 1 | 2 | 49.1 (active)
RAD51D (RAD51 paralog D) | 1 | 3 | 51.2 (active)
RAD51D (RAD51 paralog D) | 2 | 1 | 88
RAD51D (RAD51 paralog D) | 2 | 2 | 105
RAD51D (RAD51 paralog D) | 2 | 3 | 84.7

3 neighbouring entries from above, quoted:
gene symbol | pool no. | technical replicate | viability, normalised (%)
ERCC1 (ERCC excision repair 1, endonuclease non-catalytic subunit) | 1 | 1 | 66 (active)
ERCC1 (ERCC excision repair 1, endonuclease non-catalytic subunit) | 1 | 1 | 52.7 (active)
ERCC1 (ERCC excision repair 1, endonuclease non-catalytic subunit) | 1 | 2 | 76.3 (active)

The results go on:
gene symbol | pool no. | technical replicate | viability, normalised (%)
BAK1 (BCL2 antagonist/killer 1) | 1 | 1 | 76.5 (active)
BAK1 (BCL2 antagonist/killer 1) | 1 | 2 | 83.8
BAK1 (BCL2 antagonist/killer 1) | 1 | 3 | 88.8
CDK15 (cyclin dependent kinase 15) | 1 | 1 | 94.9
CDK15 (cyclin dependent kinase 15) | 1 | 2 | 45.7 (active)
CDK15 (cyclin dependent kinase 15) | 1 | 3 | 93.3
PAXIP1 (PAX interacting protein 1) | 1 | 1 | 93.7
PAXIP1 (PAX interacting protein 1) | 1 | 2 | 76.6 (active)
PAXIP1 (PAX interacting protein 1) | 1 | 3 | 86.6
CBX4 (chromobox 4) | 1 | 1 | 93.1
CBX4 (chromobox 4) | 1 | 2 | 92.6
CBX4 (chromobox 4) | 1 | 3 | 99.3
TJP3 (tight junction protein 3) | 1 | 1 | 86.1
TJP3 (tight junction protein 3) | 1 | 2 | 82.1
TJP3 (tight junction protein 3) | 1 | 3 | 91.8
RBBP8 (RB binding protein 8, endonuclease) | 1 | 1 | 41.3 (active)
RBBP8 (RB binding protein 8, endonuclease) | 1 | 1 | 62.9 (active)
RBBP8 (RB binding protein 8, endonuclease) | 1 | 2 | 47.5 (active)
RBBP8 (RB binding protein 8, endonuclease) | 1 | 2 | 51 (active)
RBBP8 (RB binding protein 8, endonuclease) | 1 | 3 | 48.4 (active)
RBBP8 (RB binding protein 8, endonuclease) | 1 | 3 | 44.2 (active)
